This is one part of the list.

The target in the assay is T1, PUM1 PUF domain R6-SWD R7-NPG N1043S + Y1044W + Q1047D + S1079N + N1080P + E1083G (Homo sapiens) (UniProt Q14671).
T1 sequence: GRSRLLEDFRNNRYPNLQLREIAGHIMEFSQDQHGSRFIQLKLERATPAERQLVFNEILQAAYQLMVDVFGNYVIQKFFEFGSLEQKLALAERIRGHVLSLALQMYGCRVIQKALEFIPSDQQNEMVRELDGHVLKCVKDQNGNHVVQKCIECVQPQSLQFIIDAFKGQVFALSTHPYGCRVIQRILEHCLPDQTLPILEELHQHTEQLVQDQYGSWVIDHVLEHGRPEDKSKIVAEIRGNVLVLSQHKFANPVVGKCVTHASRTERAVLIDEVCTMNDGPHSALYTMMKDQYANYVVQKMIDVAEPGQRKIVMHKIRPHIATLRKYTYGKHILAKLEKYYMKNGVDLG
Particulars: yeast three-hybrid, YBZ-1, SC-Leu-His + 0.5 mM 3-AT, 4 days.
Take “GGCUAGAACUAGUGGAUCCCCCGGCGCCCGGCGGCUCGAGCCCGGGUAAGGUUAUUUAGUCUGCAUGCCGCCGGGCGCCAUGCCUGCAGGUCGACUCUAGAAAACAUG”: the binding signal (log2 enrichment (interaction score)) is -0.59.
On to “GGCUAGAACUAGUGGAUCCCCCGGCGCCCGGCGGCUCGAGCCCGGGUAAGUUGGAAGAGUCUGCAUGCCGCCGGGCGCCAUGCCUGCAGGUCGACUCUAGAAAACAUG”, for which the binding signal (log2 enrichment (interaction score)) is -1.37.
Consider “GGCUAGAACUAGUGGAUCCCCCGGCGCCCGGCGGCUCGAGCCCGGGUAAGUUAGAUUCGUCUGCAUGCCGCCGGGCGCCAUGCCUGCAGGUCGACUCUAGAAAACAUG”, for which the binding signal (log2 enrichment (interaction score)) was -1.35.
In the case of “GGCUAGAACUAGUGGAUCCCCCGGCGCCCGGCGGCUCGAGCCCGGGUAAGUUAACUAAGUCUGCAUGCCGCCGGGCGCCAUGCCUGCAGGUCGACUCUAGAAAACAUG”, the binding signal (log2 enrichment (interaction score)) is -0.77.
To “GGCUAGAACUAGUGGAUCCCCCGGCGCCCGGCGGCUCGAGCCCGGGUAAGUGGUCGAAGUCUGCAUGCCGCCGGGCGCCAUGCCUGCAGGUCGACUCUAGAAAACAUG” belongs -1.31; to “GGCUAGAACUAGUGGAUCCCCCGGCGCCCGGCGGCUCGAGCCCGGGUAAGAAUAAGACGUCUGCAUGCCGCCGGGCGCCAUGCCUGCAGGUCGACUCUAGAAAACAUG”, -1.45; to “GGCUAGAACUAGUGGAUCCCCCGGCGCCCGGCGGCUCGAGCCCGGGUAAGGUCAAAAUGUCUGCAUGCCGCCGGGCGCCAUGCCUGCAGGUCGACUCUAGAAAACAUG”, -1.63.
For “GGCUAGAACUAGUGGAUCCCCCGGCGCCCGGCGGCUCGAGCCCGGGUAAGAUGUUAAUGUCUGCAUGCCGCCGGGCGCCAUGCCUGCAGGUCGACUCUAGAAAACAUG”, the binding signal (log2 enrichment (interaction score)) was -1.66.

(Values after publication PMC8384837.)
